Source: publication PMC4789793, “Noggin4 is a long-range inhibitor of Wnt8 signalling that regulates head development in Xenopus laevis” (Scientific Reports, 2016)
These are yes or no findings as the source states them, for the method shown. A result given as binding can be weak or reduced; the word gives no strength. Sequences can lack the tags named with a protein. For some of these results: Binding seen in cells or lysates may run through a third protein.

Legend:
[1] = target: T1, TagRFP-XWnt8 (Xenopus laevis) (UniProt P28026); assay: transplantation assay (diffusion from ectodermal grafts, confocal microscopy); diffusion of EGFP-Noggin4 from a graft into the intercellular space of recipient ectoderm expressing TagRFP-Wnt8, compared with recipients expressing TagRFP-hep; one hour after wound healing
T1 sequence: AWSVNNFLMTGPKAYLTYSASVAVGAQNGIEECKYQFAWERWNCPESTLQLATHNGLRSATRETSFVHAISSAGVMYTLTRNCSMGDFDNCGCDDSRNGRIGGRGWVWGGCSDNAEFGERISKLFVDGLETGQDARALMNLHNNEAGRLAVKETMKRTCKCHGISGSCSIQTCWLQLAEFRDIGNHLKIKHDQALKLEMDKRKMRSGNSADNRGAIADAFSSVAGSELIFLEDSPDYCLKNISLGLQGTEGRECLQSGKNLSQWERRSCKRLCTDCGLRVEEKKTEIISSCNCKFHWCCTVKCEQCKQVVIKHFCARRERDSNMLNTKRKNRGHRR

[2] = target: Myc-Noggin4 (Xenopus laevis); assay: co-IP; Myc-Noggin from conditioned medium of dissociated embryos bound on anti-MYC affinity gel and washed; concentrated conditioned medium with the Flag-tagged protein added, 4 °C overnight, CMFM + IP additives (0.1% NP40, glutathione); eluted with c-MYC peptide, Western blot; only the target purified
[3] = target: Myc-Noggin4 (Xenopus laevis); assay: co-IP; crude extracts of mid-gastrula embryos injected at the 2-cell stage with Noggin4 and Wnt8 mRNA, alone or with increasing amounts of Frizzled8 mRNA
[4] = target: Myc-Noggin2 (Xenopus laevis); assay: co-IP; Myc-Noggin from conditioned medium of dissociated embryos bound on anti-MYC affinity gel and washed; concentrated conditioned medium with the Flag-tagged protein added, 4 °C overnight, CMFM + IP additives (0.1% NP40, glutathione); eluted with c-MYC peptide, Western blot; only the target purified

EGFP-Noggin4 (Xenopus laevis) was tested, and the binding [1] was “binds”.

B1: Flag-Wnt8 (ligand, UniProt P28026 23-358)
chain: AWSVNNFLMTGPKAYLTYSASVAVGAQNGIEECKYQFAWERWNCPESTLQLATHNGLRSATRETSFVHAISSAGVMYTLTRNCSMGDFDNCGCDDSRNGRIGGRGWVWGGCSDNAEFGERISKLFVDGLETGQDARALMNLHNNEAGRLAVKETMKRTCKCHGISGSCSIQTCWLQLAEFRDIGNHLKIKHDQALKLEMDKRKMRSGNSADNRGAIADAFSSVAGSELIFLEDSPDYCLKNISLGLQGTEGRECLQSGKNLSQWERRSCKRLCTDCGLRVEEKKTEIISSCNCKFHWCCTVKCEQCKQVVIKHFCARRERDSNMLNTKRKNRGHRR
For B1, the binding [2] was “binds” and the binding [3] was “binds”.

B2: Flag-BMP4 (ligand, UniProt P30885 288-401)
chain: SPKQQRPRKKNKHCRRHSLYVDFSDVGWNDWIVAPPGYQAFYCHGDCPFPLADHLNSTNHAIVQTLVNSVNSSIPKACCVPTELSAISMLYLDEYDKVVLKNYQEMVVEGCGCR
B2 was tested, and the binding [4] was “binds”.
